From PubChem BioAssay AID2685 (National Center for Advancing Translational Sciences (NCATS), 2010)
Several values for one entry are separate records, joined by “and”; a condition that tells them apart may be missing. Identical values can stand only once. The list shows a part of the results. Further columns of the screen follow, without active or inactive calls. The list favours compounds with an active or inconclusive main result. Words in brackets tell the shape of the fitted curve; partial curves, single points and poor fits give uncertain potencies.

Assay: qHTS Assay for Lipid Storage Modulators in Drosophila S3 Cells;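 as to cell number change: cells counted by Cell Tracker Red CMTPX staining in the red channel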
Settings: BODIPY lipid droplet fluorescence, 18-24 h; for cell number change: measured here: cell count max response, cells fed with added oleic acid
Outline: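 Laser-scanning cytometry quantifies lipid droplet accumulation (500–530 nm total intensity; droplet/cell object ratio) in oleic acid-fed (400 uM added) Drosophila S3 cells treated with a concentration series. 20 uM Triacsin C defined 100% inhibition.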

[1] = measured here: lipid fluorescence (Fed channel) AC50, cells fed with added oleic acid
[2] = measured here: cell number channel AC50, cells fed with added oleic acid

Row | SMILES | cell number change | AC50 [1] | AC50 [2]
1 | CC(Sc1nnc(N)s1)C(=O)Nc1ccc2c(c1)OCO2 (centres undefined) | 27.7% | – | –
2 | CCCCCCn1c(=O)c(F)cn(Cc2ccc(OC)c([N+](=O)[O-])c2)c1=O | – | 0.103 µM [rising, full curve, poor fit] | –
3 | Cc1nc2c(-c3ccccc3)c(C)nn2c(C)c1CCC(=O)N1CCOCC1 | – | 3.66 µM [rising, single point] | –
4 | Cc1ccccc1C(=O)Nc1ccnn1C1CCN(C2CCSCC2)CC1 | 21.4% | 13 µM [rising, partial curve, poor fit] | –
5 | O=C(/C=C/c1ccc(Br)cc1)c1ccco1 | -23.5% | 32.6 µM [falling, partial curve] | –
6 | Cc1ccc[n+](CC(=O)Nc2cccc([N+](=O)[O-])c2)c1 | -49% | 20.6 µM [falling, partial curve] | 20.6 µM [falling, single point]
7 | CC(=O)Nc1oc(-c2cccc3ccccc23)nc1C#N | 6.94% | – | 5.17 µM [falling, single point]
8 | Cc1cc(NS(=O)(=O)c2ccc(NC(=S)NC(=O)/C=C/c3ccccc3)cc2)no1 | -14.5% | 3.98 µM [falling, full curve, poor fit] | –
9 | Cc1c(C(=O)NCc2ccccc2F)oc2ccccc12 | 7.57% | 16.4 µM [falling, single point] | –
10 | CCCCn1nnnc1SCC(=O)N(CC)CC | -7.8% | 0.291 µM [falling, full curve, poor fit] | –
11 | C=CCN1C(=O)CS/C1=C(\C#N)S(=O)(=O)c1ccc(C)cc1 | -94.9% | 29.1 µM [falling, single point] | 32.6 µM [falling, single point]
12 | COc1ccccc1NC(=O)c1cccc(S(=O)(=O)N2CCN(Cc3ccccc3)CC2)c1 | 11.1% | 0.461 µM [rising, full curve, poor fit] | –
13 | COc1cc(OC)c(-c2nnc(-c3ccc(OC)c(OC)c3OC)o2)cc1OC | – | 0.517 µM [rising, full curve] | 0.517 µM [rising, full curve]
14 | CCOC(=O)c1cc(C#N)c(N2CCN(c3ccccn3)CC2)nc1-c1ccccc1 | – | – | 0.082 µM [rising, full curve, poor fit]
15 | O=C(c1cc(-c2ccccc2)n[nH]1)N1CCc2c([nH]c3ccccc23)C1c1ccccn1 (centres undefined) | -26.4% | – | –
16 | Cc1ccc2nc(NC(=O)C3CCCN3C(=O)OC(C)(C)C)sc2c1 (centres undefined) | 7.17% | 0.259 µM [rising, full curve, poor fit] | –
17 | O=C1C=C(N2CCN(C3=CC(=O)CCC3)CC2)CCC1 | -5.21% | 3.66 µM [falling, partial curve] | –
18 | O=C(O)CCN1C(=O)c2ccc(Oc3ccc([N+](=O)[O-])cc3)cc2C1=O | 38.2% | – | 29.1 µM [rising, single point]
19 | Cc1ccc(-c2nc3ncccc3o2)cc1NC(=O)C(C)(C)C | -4.97% | 0.58 µM [falling, single point] | –
20 | CCC1Oc2ccc(C)cc2N(CC(=O)N2CCCC2)C1=O (centres undefined) | 18.4% | 23.1 µM [rising, single point] | –

Row | SMILES | cell number change | AC50 [1] | AC50 [2]
21 | O=C(O)c1ccc(NC(=O)c2ccccc2Br)c(NC(=O)c2ccccc2Br)c1 | -13% | 11.6 µM [rising, partial curve] | –
22 | Cc1nc(N2CCN(c3ccccn3)CC2)c2c(C)c(C(=O)Nc3ccc(F)cc3Cl)sc2n1 | 10.5% | – | 4.11 µM [falling, single point]
23 | O=C(Nc1cc(C(F)(F)F)ccc1Cl)C(NCc1ccccc1)c1ccccc1 (centres undefined) | 8.11% | – | –
24 | COc1ccccc1Nc1nc(C2(C)CCC(=O)O2)cs1 (centres undefined) | 100% | 16.4 µM [rising, partial curve] | 16.4 µM [rising, partial curve]
25 | CCCC(C(=O)NC(C)(C)C)N(Cc1ccccc1Cl)C(=O)c1snc(C(N)=O)c1N (centres undefined) | -40.4% | 29.1 µM [falling, single point] | 25.9 µM [falling, single point]
26 | CCC1CCCCN1C(=O)COC(=O)CN(C)S(=O)(=O)c1ccc(NC(C)=O)cc1 (centres undefined) | -50% | – | 29.1 µM [falling, single point]
27 | CC(=O)Cc1nsc(NC(=O)c2ccc(-c3ccc(Cl)cc3Cl)o2)n1 | -9.6% | 2.06 µM [rising, single point] | –
28 | CCOc1ccc(CCNC(=O)CS(=O)Cc2nc(-c3ccc(C)cc3)oc2C)cc1 (centres undefined) | 3.61% | 1.84 µM [falling, partial curve, poor fit] | –
29 | COC(=O)C1=CN(c2cccc(C)c2)C=C(C(=O)OC)C1c1cc(OC)c(O)c([N+](=O)[O-])c1 | – | 1.46 µM [falling, full curve] | –
30 | Cc1ccccc1-n1cc(CNC(=O)C2CCC(=O)N(C3CC3)C2)cn1 (centres undefined) | -10.4% | 29.1 µM [rising, single point] | –
31 | COc1ccc(C(=O)Nn2cnnc2)cc1OC | 4.43% | 0.082 µM [falling, full curve, poor fit] | –
32 | O=C(Nc1cnn(Cc2c(Cl)cccc2Cl)c1)C(c1ccccc1)c1ccccc1 | 0.233% | 1.3 µM [rising, full curve, poor fit] | –
33 | CCOc1ccc(N(CCCCO)C(=S)NC(=O)c2ccc(C)c(Br)c2)cc1 | -49.7% | – | –
34 | Cc1ccc(C(=O)N/N=C/c2ccc3c(c2)OCO3)o1 | 13.7% | 29.1 µM [falling, single point] | –
35 | Cn1ccnc1C(=O)c1ccc(S(=O)(=O)N2CCCC2)cc1 | – | 0.103 µM [falling, partial curve, poor fit] | 0.058 µM [falling, full curve, poor fit]
36 | CCN(C(=O)COC(=O)/C=C/c1ccco1)c1c(N)n(Cc2ccccc2)c(=O)[nH]c1=O | 2.85% | 7.31 µM [falling, partial curve, poor fit] | 0.259 µM [falling, single point]
37 | CC1CCc2sc(C(=O)OCC(=O)NC(C)C)cc2C1 (centres undefined) | -59.7% | 29.1 µM [falling, single point] | 29.1 µM [falling, single point]
38 | Cc1cc(C(=O)COC(=O)c2csc3c2CCCC3)c(C)n1C | 14.7% | 3.66 µM [rising, full curve, poor fit] | –
39 | CCC(=O)N1CN(S(=O)(=O)c2ccc(C)cc2)CC1C (centres undefined) | 0.123% | 0.0058 µM [falling, full curve] | –
40 | O=C(CCNS(=O)(=O)c1cccc2nonc12)NCc1cccs1 | -0.676% | 2.91 µM [rising, full curve] | –

Row | SMILES | cell number change | AC50 [1] | AC50 [2]
41 | Cc1cc(=O)[nH]c(SCC(=O)/C=C2\N(C)c3ccccc3C2(C)C)n1 | -10.2% | 6.51 µM [falling, single point] | –
42 | Cn1c(CC(=O)Nc2ccccc2)c(Sc2ccccc2)c2ccccc21 | – | 29.1 µM [falling, single point] | –
43 | C/C(=C\c1ccco1)C1C(C#N)=C(N)Oc2n[nH]c(-c3ccccc3)c21 (centres undefined) | -16.3% | 3.66 µM [rising, partial curve] | 2.91 µM [rising, partial curve]
44 | COc1ccc(/C(C)=N/NC(=O)c2ccc(CSc3cccc4cccnc34)cc2)cc1OC | -39.1% | 10.3 µM [falling, partial curve] | 20.6 µM [falling, single point]
45 | COc1ccccc1CO/N=C/c1cccn1-c1nccc(N(C)C)c1C#N | – | – | 2.31 µM [rising, partial curve]
46 | Cc1cc2nc(C3CCCN(C(=S)Nc4ccccc4)C3)[nH]c2cc1C (centres undefined) | -30.9% | 16.4 µM [falling, single point] | 20.6 µM [falling, single point]
47 | O=C(CC1CCCC1)Nc1ccc(Br)cc1 | 13.5% | – | –
48 | Cc1ccc2cc3cc(C(=O)N4CCN(Cc5ccccc5)CC4)sc3nc2c1 | -15.3% | – | –
49 | O=C(NC1CCCCCCC1)c1cnccn1 | 35% | 29.1 µM [rising, partial curve, poor fit] | 29.1 µM [rising, single point]
50 | CCn1c(C)cc(O)cc1=O | 7.37% | 29.1 µM [rising, single point] | –
51 | CCN(CC)S(=O)(=O)c1ccc(-c2nnc(SCC(=O)Nc3nc(C)cs3)o2)cc1 | -13.7% | 2.31 µM [rising, full curve] | –
52 | COc1ccc(NC2C=CS(=O)(=O)C2)c(OC)c1 (centres undefined) | 11.9% | 0.146 µM [falling, full curve] | –
53 | CN(CC(=O)Nc1c(Cl)cccc1Cl)C(=O)c1sccc1-c1ccccc1 | – | 25.9 µM [falling, single point] | 3.66 µM [rising, partial curve]
54 | Cc1ccc(C(=O)NCCc2ccc(S(N)(=O)=O)cc2)o1 | – | 2.06 µM [rising, single point] | –
55 | CCOc1cc(C)nc(NCCc2ccc(OC)c(OC)c2)n1 | 7.87% | – | –
56 | COCCN1C(=S)N[C@@H](c2cccc(F)c2)C(C(=O)OC)=C1C | -3.59% and 15.9% | 130 nM [rising, full curve] and 3.26 µM [rising, full curve, poor fit] | –
57 | CC(C)n1c(=O)[nH]c2ccccc21 | -50.3% | 29.1 µM [falling, single point] | 5.8 µM [falling, full curve]
58 | O=c1[nH]c2ccccc2n2cnnc12 | 51.4% | – | –
59 | CCC/S(CC1CC1(Cl)Cl)=N\S(=O)(=O)c1ccc(C)cc1 (centres undefined) | 44.1% | – | 4.61 µM [rising, partial curve]
